Reference: PubChem BioAssay AID743121 (NCATS, 2013)

Screen: 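Partners whose loss is lethal together with topoisomerase I blockade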 (primary screen)
Cell system: MDA-MB-231 cells, a human breast cancer line
Knock-down reagent: single siRNA against human genes, 20 nM siRNA (0.8 pmol per well)
Time to read-out: 120 h (drug added 48 h after transfection, read 72 h later)
Conditions: camptothecin 20 nM (about EC30) for 72 h; vehicle 0.1% DMSO in parallel plates
Detection: 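Cell viability by ATP luminescence (CellTiter-Glo) as % of non-targeting siRNA wells, and the log2 ratio of viability without drug over viability with camptothecin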
Direction: log2 vehicle/camptothecin viability: higher = stronger sensitisation to camptothecin; viability with camptothecin and viability without drug: higher = more viable cells
Active means: 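Each gene scored by redundant siRNA activity (RSA) over its individual siRNA ratios; a gene is called active at p < 0.001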
Shown is an unselected part of about 26,000 deposited reagents. Over the whole deposit, 167 (0.63%) got an active call. 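Calls are per gene from RSA p-values that are not deposited; an individual active-marked siRNA can sensitise only weakly.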 Entries without a mark were called inactive. Reagents against one gene are numbered here.

log2 vehicle/camptothecin viability	viability with camptothecin (% of control)	viability without drug (% of control)	target gene	reagent no.
-0.0292	105	103	CDH3 (cadherin 3)	1
-0.305	64.2	52	CDH3 (cadherin 3)	2
-0.0996	76.9	71.8	CDH3 (cadherin 3)	3
-0.207	111	95.8	CDH3 (cadherin 3)	4
0.0241	97.9	99.6	CLK3 (CDC like kinase 3)	1
-0.102	42.6	39.7	CLK3 (CDC like kinase 3)	2
1.76	19.4	65.4	CLK3 (CDC like kinase 3)	3
0.0555	57.9	60.2	CLK3 (CDC like kinase 3)	4
-0.0755	100	95.2	APOC2 (apolipoprotein C2)	1
0.0303	71.2	72.7	APOC2 (apolipoprotein C2)	2
-0.242	81.7	69.1	APOC2 (apolipoprotein C2)	3
0.191	77.2	88.1	APOC2 (apolipoprotein C2)	4
-0.0277	95	93.2	OPN5 (opsin 5)	1
-0.213	66.5	57.4	OPN5 (opsin 5)	2
-0.405	71.9	54.3	OPN5 (opsin 5)	3
-0.075	74.9	71.1	OPN5 (opsin 5)	4
-0.498	94.7	67	NME8 (NME/NM23 family member 8)	1
0.302	55.6	68.5	NME8 (NME/NM23 family member 8)	2
0.437	35	47.4	NME8 (NME/NM23 family member 8)	3
-0.00418	75.7	75.5	NME8 (NME/NM23 family member 8)	4
-0.397	42.3	32.1	NR1D1 (nuclear receptor subfamily 1 group D member 1)	1
-0.136	53.2	48.4	NR1D1 (nuclear receptor subfamily 1 group D member 1)	2
-0.425	92.8	69.1	NR1D1 (nuclear receptor subfamily 1 group D member 1)	3
0.22	73.8	86	NR1D1 (nuclear receptor subfamily 1 group D member 1)	4
-0.388	101	77.3	MTOR (mechanistic target of rapamycin kinase)	1
-0.325	59.1	47.2	MTOR (mechanistic target of rapamycin kinase)	2
-0.411	102	77	MTOR (mechanistic target of rapamycin kinase)	3
-0.525	66.7	46.3	MTOR (mechanistic target of rapamycin kinase)	4
-0.388	57.2	43.7	MTOR (mechanistic target of rapamycin kinase)	5
-0.315	56.9	45.7	MTOR (mechanistic target of rapamycin kinase)	6
0.287	65.1	79.4	NCCRP1 (NCCRP1, F-box associated domain containing)	1
0.105	88.7	95.4	NCCRP1 (NCCRP1, F-box associated domain containing)	2
-0.111	97.2	90	NCCRP1 (NCCRP1, F-box associated domain containing)	3
-0.279	107	88	NCCRP1 (NCCRP1, F-box associated domain containing)	4
-0.107	31	28.8	TNFSF14 (TNF superfamily member 14)	1
-0.446	83.2	61.1	TNFSF14 (TNF superfamily member 14)	2
-0.19	90.5	79.3	TNFSF14 (TNF superfamily member 14)	3
-0.381	124	95.2	TNFSF14 (TNF superfamily member 14)	4
-0.379	69.1	53.1	ADGRL3 (adhesion G protein-coupled receptor L3)	1
-0.104	117	109	ADGRL3 (adhesion G protein-coupled receptor L3)	2
-0.307	88.3	71.4	ADGRL3 (adhesion G protein-coupled receptor L3)	3
0.318	71.2	88.8	ADGRL3 (adhesion G protein-coupled receptor L3)	4
-0.231	96	81.8	PAH (phenylalanine hydroxylase)	1
-0.295	89.5	73	PAH (phenylalanine hydroxylase)	2
0.0228	98.1	99.6	PAH (phenylalanine hydroxylase)	3
0.303	99.1	122	PAH (phenylalanine hydroxylase)	4

Reprinted from the listing, 7 entries:
log2 vehicle/camptothecin viability	viability with camptothecin (% of control)	viability without drug (% of control)	target gene	reagent no.
-0.104	117	109	ADGRL3 (adhesion G protein-coupled receptor L3)	2
-0.307	88.3	71.4	ADGRL3 (adhesion G protein-coupled receptor L3)	3
0.318	71.2	88.8	ADGRL3 (adhesion G protein-coupled receptor L3)	4
-0.231	96	81.8	PAH (phenylalanine hydroxylase)	1
-0.295	89.5	73	PAH (phenylalanine hydroxylase)	2
0.0228	98.1	99.6	PAH (phenylalanine hydroxylase)	3
0.303	99.1	122	PAH (phenylalanine hydroxylase)	4
